# From the supplement of paper PMC8728848
# Some of the results follow.
# B1: PX14351B-bth-512-36-512 (Bacteroides thetaiotaomicron) (protein)
# chain: ASETQQWKTLEDTRSALMGVYGLTRAALADNNTHWICGDLRKGDFTVYKRSDLQAVSDNELNKPYDLLKKVSNWRRFYAVINAASVFMEKAPRTVELDRSYSEQNLKYDIAQVRALRAFAYFYMVRIWGDVPLVTYSYDNGTFPSMPRTDAQTVLSYAKAELLTAIEDLPYQYGTQTNLYYGSYGAQWQGKLFNKLSAYSVLAHICAWQGNYAEAETYSAFIIDHASEINAKYTSIADLTSETGLFYSNASVKGSRILGFNFAHNDNEATQSGHLEQLTLAYPLVQKSYPEIYISKDSLFSIFTNFDDLRFGIIDTIKYSSYYVQNLNEETPVFSKIKIIQDGSAKDNDFGVFGSSIVFTRLEDITLLRAEALCALNRSTEAVSYLNMIRTNRGLREVSFKKDFGNNRESLIAEIFEERRRELMGEGWRWYDLVRRQKLMKDNEAFLRLISSGGIYWPVSEDIITANSQIEQNEFWK
# Columns and labels:
# Assay in all cases: glycan array binding signal (z-score within array); higher = stronger binding
# Conditions in all cases: glycan notation: IUPAC condensed, linker removed
# Gal(b1-4)GlcNAc = biological target: Gal(b1-4)GlcNAc
# Procedure, shortened: (§1)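 The binding signal is a Z-score computed within each array and averaged over linkers. Arrays of the same protein sequence at different concentrations or buffers were also averaged together. Data originate from 3228 arrays in the Consortium for Functional Glycomics database, kept only where the protein sequence was available.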
# [1] = biological target: Gal(b1-4)GlcNAc(a1-6)Gal(b1-4)GlcNAc
# Procedure, shortened: as §1
# Gal(b1-4)GlcNAc(b1-2)Man = biological target: Gal(b1-4)GlcNAc(b1-2)Man
# Procedure, shortened: as §1
# [2] = biological target: Gal(b1-4)GlcNAc(b1-2)Man(a1-3)Man(b1-4)GlcNAc(b1-4)GlcNAc
# Procedure, shortened: as §1
# [3] = biological target: Gal(b1-4)GlcNAc(b1-2)Man(a1-3)[Gal(b1-4)GlcNAc(b1-2)Man(a1-6)]Man(b1-4)GlcNAc(b1-4)GlcNAc
# Procedure, shortened: as §1
# [4] = biological target: Gal(b1-4)GlcNAc(b1-2)Man(a1-3)[Gal(b1-4)GlcNAc(b1-2)Man(a1-6)]Man(b1-4)GlcNAc(b1-4)[Fuc(a1-6)]GlcNAc
# Procedure, shortened: as §1
# [5] = biological target: Gal(b1-4)GlcNAc(b1-2)Man(a1-3)[Gal(b1-4)GlcNAc(b1-2)Man(a1-6)][Gal(b1-4)GlcNAc(b1-4)]Man(b1-4)GlcNAc(b1-4)[Fuc(a1-6)]GlcNAc
# Procedure, shortened: as §1
# [6] = biological target: Gal(b1-4)GlcNAc(b1-2)Man(a1-3)[Gal(b1-4)GlcNAc(b1-2)Man(a1-6)][GlcNAc(b1-4)]Man(b1-4)GlcNAc(b1-4)[Fuc(a1-6)]GlcNAc
# Procedure, shortened: as §1
# [7] = biological target: Gal(b1-4)GlcNAc(b1-2)Man(a1-3)[GlcNAc(b1-2)Man(a1-6)]Man(b1-4)GlcNAc(b1-4)GlcNAc
# Procedure, shortened: as §1
# [8] = biological target: Gal(b1-4)GlcNAc(b1-2)Man(a1-3)[GlcNAc(b1-4)][Gal(b1-4)GlcNAc(b1-2)Man(a1-6)]Man(b1-4)GlcNAc(b1-4)GlcNAc
# Procedure, shortened: as §1
# [9] = biological target: Gal(b1-4)GlcNAc(b1-2)Man(a1-3)[Man(a1-6)]Man(b1-4)GlcNAc(b1-4)GlcNAc
# Procedure, shortened: as §1
# [10] = biological target: Gal(b1-4)GlcNAc(b1-2)Man(a1-6)Man(b1-4)GlcNAc(b1-4)GlcNAc
# Procedure, shortened: as §1
# [11] = biological target: Gal(b1-4)GlcNAc(b1-2)Man(a1-6)[GlcNAc(b1-2)Man(a1-3)]Man(b1-4)GlcNAc(b1-4)GlcNAc
# Procedure, shortened: as §1
# [12] = biological target: Gal(b1-4)GlcNAc(b1-2)[Gal(b1-4)GlcNAc(b1-4)]Man(a1-3)[Gal(b1-4)GlcNAc(b1-2)Man(a1-6)]Man(b1-4)GlcNAc(b1-4)GlcNAc
# Procedure, shortened: as §1
# [13] = biological target: Gal(b1-4)GlcNAc(b1-2)[Gal(b1-4)GlcNAc(b1-4)]Man(a1-3)[Gal(b1-4)GlcNAc(b1-2)[Gal(b1-4)GlcNAc(b1-6)]Man(a1-6)]Man(b1-4)GlcNAc(b1-4)GlcNAc
# Procedure, shortened: as §1
# [14] = biological target: Gal(b1-4)GlcNAc(b1-2)[Gal(b1-4)GlcNAc(b1-4)]Man(a1-3)[GlcNAc(b1-4)][Gal(b1-4)GlcNAc(b1-2)Man(a1-6)]Man(b1-4)GlcNAc(b1-4)GlcNAc
# Procedure, shortened: as §1
# [15] = biological target: Gal(b1-4)GlcNAc(b1-2)[Gal(b1-4)GlcNAc(b1-4)]Man(a1-3)[GlcNAc(b1-4)][Gal(b1-4)GlcNAc(b1-2)[Gal(b1-4)GlcNAc(b1-6)]Man(a1-6)]Man(b1-4)GlcNAc(b1-4)GlcNAc
# Procedure, shortened: as §1
# [16] = biological target: Gal(b1-4)GlcNAc(b1-2)[Gal(b1-4)GlcNAc(b1-6)]Man(a1-6)[Gal(b1-4)GlcNAc(b1-2)Man(a1-3)]Man(b1-4)GlcNAc(b1-4)GlcNAc
# Procedure, shortened: as §1
# [17] = biological target: Gal(b1-4)GlcNAc(b1-2)[Gal(b1-4)GlcNAc(b1-6)]Man(a1-6)[GlcNAc(b1-4)][Gal(b1-4)GlcNAc(b1-2)Man(a1-3)]Man(b1-4)GlcNAc(b1-4)GlcNAc
# Procedure, shortened: as §1
# [18] = biological target: Gal(b1-4)GlcNAc(b1-2)[Gal(b1-4)GlcNAc(b1-6)]Man(a1-6)[GlcNAc(b1-4)][Gal(b1-4)GlcNAc(b1-2)[Gal(b1-4)GlcNAc(b1-4)]Man(a1-3)]Man(b1-4)GlcNAc(b1-4)[Fuc(a1-6)]GlcNAc
# Procedure, shortened: as §1
# [19] = biological target: Gal(b1-4)GlcNAc(b1-3)Gal(b1-3)GalNAc
# Procedure, shortened: as §1
# [20] = biological target: Gal(b1-4)GlcNAc(b1-3)Gal(b1-3)GlcNAc
# Procedure, shortened: as §1
# [21] = biological target: Gal(b1-4)GlcNAc(b1-3)Gal(b1-4)GlcNAc
# Procedure, shortened: as §1
# [22] = biological target: Gal(b1-4)GlcNAc(b1-3)Gal(b1-4)GlcNAc(b1-2)Man(a1-3)[Gal(b1-4)GlcNAc(b1-3)Gal(b1-4)GlcNAc(b1-2)Man(a1-6)]Man(b1-4)GlcNAc(b1-4)GlcNAc
# Procedure, shortened: as §1
# [23] = biological target: Gal(b1-4)GlcNAc(b1-3)Gal(b1-4)GlcNAc(b1-2)Man(a1-3)[Gal(b1-4)GlcNAc(b1-3)Gal(b1-4)GlcNAc(b1-2)Man(a1-6)]Man(b1-4)GlcNAc(b1-4)[Fuc(a1-6)]GlcNAc
# Procedure, shortened: as §1
# [24] = biological target: Gal(b1-4)GlcNAc(b1-3)Gal(b1-4)GlcNAc(b1-3)Gal(b1-4)GlcNAc
# Procedure, shortened: as §1
# [25] = biological target: Gal(b1-4)GlcNAc(b1-3)Gal(b1-4)GlcNAc(b1-3)Gal(b1-4)GlcNAc(b1-2)Man(a1-3)[Gal(b1-4)GlcNAc(b1-3)Gal(b1-4)GlcNAc(b1-3)Gal(b1-4)GlcNAc(b1-2)Man(a1-6)]Man(b1-4)GlcNAc(b1-4)[Fuc(a1-6)]GlcNAc
# Procedure, shortened: as §1
# [26] = biological target: Gal(b1-4)GlcNAc(b1-3)Gal(b1-4)GlcNAc(b1-3)Gal(b1-4)GlcNAc(b1-2)[Gal(b1-4)GlcNAc(b1-3)Gal(b1-4)GlcNAc(b1-3)Gal(b1-4)GlcNAc(b1-6)]Man(a1-6)[Gal(b1-4)GlcNAc(b1-3)Gal(b1-4)GlcNAc(b1-3)Gal(b1-4)GlcNAc(b1-2)Man(a1-3)]Man(b1-4)GlcNAc(b1-4)[Fuc(a1-6)]GlcNAc
# Procedure, shortened: as §1
# [27] = biological target: Gal(b1-4)GlcNAc(b1-3)Gal(b1-4)GlcNAc(b1-3)Gal(b1-4)GlcNAc(b1-3)Gal(b1-4)GlcNAc(b1-2)Man(a1-3)[Gal(b1-4)GlcNAc(b1-3)Gal(b1-4)GlcNAc(b1-3)Gal(b1-4)GlcNAc(b1-3)Gal(b1-4)GlcNAc(b1-2)Man(a1-6)]Man(b1-4)GlcNAc(b1-4)GlcNAc
# Procedure, shortened: as §1
# [28] = biological target: Gal(b1-4)GlcNAc(b1-3)Gal(b1-4)GlcNAc(b1-3)Gal(b1-4)GlcNAc(b1-3)Gal(b1-4)GlcNAc(b1-2)Man(a1-3)[Gal(b1-4)GlcNAc(b1-3)Gal(b1-4)GlcNAc(b1-3)Gal(b1-4)GlcNAc(b1-3)Gal(b1-4)GlcNAc(b1-2)Man(a1-6)]Man(b1-4)GlcNAc(b1-4)[Fuc(a1-6)]GlcNAc
# Procedure, shortened: as §1
# [29] = biological target: Gal(b1-4)GlcNAc(b1-3)Gal(b1-4)GlcNAc(b1-3)Gal(b1-4)GlcNAc(b1-3)Gal(b1-4)GlcNAc(b1-2)[Gal(b1-4)GlcNAc(b1-3)Gal(b1-4)GlcNAc(b1-3)Gal(b1-4)GlcNAc(b1-3)Gal(b1-4)GlcNAc(b1-6)]Man(a1-6)[Gal(b1-4)GlcNAc(b1-3)Gal(b1-4)GlcNAc(b1-3)Gal(b1-4)GlcNAc(b1-3)Gal(b1-4)GlcNAc(b1-2)Man(a1-3)]Man(b1-4)GlcNAc(b1-4)[Fuc(a1-6)]GlcNAc
# Procedure, shortened: as §1
# [30] = biological target: Gal(b1-4)GlcNAc(b1-3)Gal(b1-4)GlcNAc(b1-3)Gal(b1-4)GlcNAc(b1-3)Gal(b1-4)GlcNAc(b1-3)Gal(b1-4)GlcNAc(b1-2)Man(a1-3)[Gal(b1-4)GlcNAc(b1-3)Gal(b1-4)GlcNAc(b1-3)Gal(b1-4)GlcNAc(b1-3)Gal(b1-4)GlcNAc(b1-3)Gal(b1-4)GlcNAc(b1-2)Man(a1-6)]Man(b1-4)GlcNAc(b1-4)GlcNAc
# Procedure, shortened: as §1
# [31] = biological target: Gal(b1-4)GlcNAc(b1-3)Gal(b1-4)GlcNAc(b1-3)Gal(b1-4)GlcNAc(b1-3)Gal(b1-4)GlcNAc(b1-3)Gal(b1-4)GlcNAc(b1-2)Man(a1-3)[Gal(b1-4)GlcNAc(b1-3)Gal(b1-4)GlcNAc(b1-3)Gal(b1-4)GlcNAc(b1-3)Gal(b1-4)GlcNAc(b1-3)Gal(b1-4)GlcNAc(b1-2)Man(a1-6)]Man(b1-4)GlcNAc(b1-4)[Fuc(a1-6)]GlcNAc
# Procedure, shortened: as §1
# [32] = biological target: Gal(b1-4)GlcNAc(b1-3)Gal(b1-4)GlcNAc(b1-3)Gal(b1-4)GlcNAc(b1-3)Gal(b1-4)GlcNAc(b1-3)Gal(b1-4)GlcNAc(b1-3)Gal(b1-4)GlcNAc(b1-2)Man(a1-3)[Gal(b1-4)GlcNAc(b1-3)Gal(b1-4)GlcNAc(b1-3)Gal(b1-4)GlcNAc(b1-3)Gal(b1-4)GlcNAc(b1-3)Gal(b1-4)GlcNAc(b1-3)Gal(b1-4)GlcNAc(b1-2)Man(a1-6)]Man(b1-4)GlcNAc(b1-4)GlcNAc
# Procedure, shortened: as §1
# [33] = biological target: Gal(b1-4)GlcNAc(b1-3)Gal(b1-4)GlcNAc(b1-3)GalNAc
# Procedure, shortened: as §1
# [34] = biological target: Gal(b1-4)GlcNAc(b1-3)Gal(b1-4)GlcNAc(b1-3)[Gal(b1-4)GlcNAc(b1-3)Gal(b1-4)GlcNAc(b1-6)]GalNAc
# Procedure, shortened: as §1
# [35] = biological target: Gal(b1-4)GlcNAc(b1-3)Gal(b1-4)GlcNAc(b1-6)[Gal(b1-3)]GalNAc
# Procedure, shortened: as §1
binder,measurement,setting,value
B1,glycan array binding signal (z-score),Gal(b1-4)GlcNAc,-0.269
same,glycan array binding signal (z-score),[1],-0.231
same,glycan array binding signal (z-score),Gal(b1-4)GlcNAc(b1-2)Man,-0.19
same,glycan array binding signal (z-score),[2],0.101
same,glycan array binding signal (z-score),[3],-0.03
same,glycan array binding signal (z-score),[4],-0.139
same,glycan array binding signal (z-score),[5],-0.038
same,glycan array binding signal (z-score),[6],-0.433
same,glycan array binding signal (z-score),[7],0.077
same,glycan array binding signal (z-score),[8],-0.229
same,glycan array binding signal (z-score),[9],-0.226
same,glycan array binding signal (z-score),[10],-0.081
same,glycan array binding signal (z-score),[11],-0.359
same,glycan array binding signal (z-score),[12],-0.187
same,glycan array binding signal (z-score),[13],-0.164
same,glycan array binding signal (z-score),[14],-0.05
same,glycan array binding signal (z-score),[15],-0.163
same,glycan array binding signal (z-score),[16],0.041
same,glycan array binding signal (z-score),[17],-0.255
same,glycan array binding signal (z-score),[18],-0.15
same,glycan array binding signal (z-score),[19],0.062
same,glycan array binding signal (z-score),[20],-0.057
same,glycan array binding signal (z-score),[21],-0.088
same,glycan array binding signal (z-score),[22],0.337
same,glycan array binding signal (z-score),[23],0.225
same,glycan array binding signal (z-score),[24],-0.314
same,glycan array binding signal (z-score),[25],0.027
same,glycan array binding signal (z-score),[26],0.121
same,glycan array binding signal (z-score),[27],0.455
same,glycan array binding signal (z-score),[28],0.547
same,glycan array binding signal (z-score),[29],1.34
same,glycan array binding signal (z-score),[30],0.443
same,glycan array binding signal (z-score),[31],0.878
same,glycan array binding signal (z-score),[32],0.858
same,glycan array binding signal (z-score),[33],-0.237
same,glycan array binding signal (z-score),[34],-0.098
same,glycan array binding signal (z-score),[35],0.178

# Exported with bars between the fields: part of the list above.
binder | measurement | setting | value
B1 | glycan array binding signal (z-score) | [3] | -0.03
same | glycan array binding signal (z-score) | [4] | -0.139
